Experimental data published in PMC8027845.
Results are given in words; binding and its absence hold for the method and conditions named. In cells and extracts the contact can be indirect. Some entries that bind do so weakly or less than the wild type.

Target: T1, T-LAK-originated protein kinase (TOPK) (human (endogenous in H460)) (UniProt Q96KB5)
T1 sequence: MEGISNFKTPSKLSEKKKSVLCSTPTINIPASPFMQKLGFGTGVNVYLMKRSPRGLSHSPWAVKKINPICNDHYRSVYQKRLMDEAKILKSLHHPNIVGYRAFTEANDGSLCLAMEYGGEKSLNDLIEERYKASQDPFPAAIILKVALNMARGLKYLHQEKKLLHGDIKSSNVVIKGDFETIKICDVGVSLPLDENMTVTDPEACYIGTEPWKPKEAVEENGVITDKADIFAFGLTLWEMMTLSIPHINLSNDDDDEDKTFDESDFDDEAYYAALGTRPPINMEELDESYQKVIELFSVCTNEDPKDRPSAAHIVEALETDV
Assay: co-IP; TOPK precipitated from precleared H460 whole-cell lysates (RIPA buffer, protease and phosphatase inhibitors) with Protein A/G beads preloaded with 2 ug antibody, 5-6 h at 4 °C; western blot for Cdc25C and CHK1; cells untreated or treated with OTS964 and/or 4 Gy irradiation, overnight hydroxyurea (1 mM) or nocodazole (100 ng/ml); mouse IgG as negative control

- binding: binds
B1: Cdc25C (protein, UniProt P30307 1-473)
chain: MSTELFSSTREEGSSGSGPSFRSNQRKMLNLLLERDTSFTVCPDVPRTPVGKFLGDSANLSILSGGTPKRCLDLSNLSSGEITATQLTTSADLDETGHLDSSGLQEVHLAGMNHDQHLMKCSPAQLLCSTPNGLDRGHRKRDAMCSSSANKENDNGNLVDSEMKYLGSPITTVPKLDKNPNLGEDQAEEISDELMEFSLKDQEAKVSRSGLYRSPSMPENLNRPRLKQVEKFKDNTIPDKVKKKYFSGQGKLRKGLCLKKTVSLCDITITQMLEEDSNQGHLIGDFSKVCALPTVSGKHQDLKYVNPETVAALLSGKFQGLIEKFYVIDCRYPYEYLGGHIQGALNLYSQEELFNFFLKKPIVPLDTQKRIIIVFHCEFSSERGPRMCRCLREEDRSLNQYPALYYPELYILKGGYRDFFPEYMELCEPQSYCPMHHQDHKTELLRCRSQSKVQEGERQLREQIALLVKDMSP
